Data as given in PubChem BioAssay AID743454 (Peter MacCallum Cancer Centre, 2014)

Aim: 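Search for knock-downs that restore vorinostat killing in resistant colon cancer cells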 (primary screen)
System: human HCT116-VR colon cancer cells, selected for vorinostat resistance
Reagents: siRNA pool against human genes, 40 nM siRNA pool
Duration: vorinostat for 24 h, read-out about 72 h after transfection
Challenge: vorinostat at 2.5 µM final
Detection: 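Two measures, CellTiter-Fluor viability and luminescent caspase 3/7 activity, each as fold change against same-plate mock wells, mean of duplicates, then screen-wide robust z-score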
Reading the numbers: viability robust z-score: higher = more viable cells than screen typical; caspase robust z-score: higher = more caspase 3/7 activity than screen typical
Rule for the call: 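Hits are knock-downs in viability class RV1/RV2 or caspase class CA1/CA2, excluding ones that killed cells in the no-drug cell-count arm; hits then retested with single siRNAs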
The deposit covers about 18,000 reagents; shown is a random part of them. 450 of all reagents (2.5%) were called active. 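Single biological run; no consistent viability z cut-off exists, so the class columns, not z-scores, define the calls.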 A number with no mark means an inactive call.

The opening 2 records, to show the layout:
{"gene symbol":"ABCF3","PubChem SID":"SID152155647","viability hit class":"no change","caspase hit class":"no change","viability robust z-score":0.12,"caspase robust z-score":0.56}
{"gene symbol":"H4C5","PubChem SID":"SID134315800","viability hit class":"no change","caspase hit class":"no change","viability robust z-score":1.32,"caspase robust z-score":-0.64}

The listing, from the start:
{"gene symbol":"ABCF3","PubChem SID":"SID152155647","viability hit class":"no change","caspase hit class":"no change","viability robust z-score":0.12,"caspase robust z-score":0.56}
{"gene symbol":"H4C5","PubChem SID":"SID134315800","viability hit class":"no change","caspase hit class":"no change","viability robust z-score":1.32,"caspase robust z-score":-0.64}
{"gene symbol":"DBNDD1","PubChem SID":"SID152152709","viability hit class":"no change","caspase hit class":"no change","viability robust z-score":-1.23,"caspase robust z-score":-0.28}
{"gene symbol":"DHRS4L1","PubChem SID":"SID135625618","viability hit class":"no change","caspase hit class":"no change","viability robust z-score":1.36,"caspase robust z-score":-0.02}
{"gene symbol":"SPATA31H1","PubChem SID":"SID152156200","viability hit class":"no change","caspase hit class":"no change","viability robust z-score":0.14,"caspase robust z-score":-0.3}
{"gene symbol":"NDST1","PubChem SID":"SID134314130","viability hit class":"no change","caspase hit class":"no change","viability robust z-score":0.84,"caspase robust z-score":-0.34}
{"gene symbol":"RGR","PubChem SID":"SID135621060","viability hit class":"no change","caspase hit class":"no change","viability robust z-score":0.22,"caspase robust z-score":0.24}
{"gene symbol":"DONSON","PubChem SID":"SID152147695","viability hit class":"no change","caspase hit class":"no change","viability robust z-score":-3.41,"caspase robust z-score":4.3}
{"gene symbol":"SHANK2","PubChem SID":"SID134316730","viability hit class":"no change","caspase hit class":"no change","viability robust z-score":-0.66,"caspase robust z-score":0.01}
{"gene symbol":"TG","PubChem SID":"SID135621743","viability hit class":"no change","caspase hit class":"no change","viability robust z-score":0.62,"caspase robust z-score":1.54}
{"gene symbol":"ZNF215","PubChem SID":"SID152152876","viability hit class":"no change","caspase hit class":"no change","viability robust z-score":1.31,"caspase robust z-score":0.55}
{"gene symbol":"STAU1","PubChem SID":"SID152154991","viability hit class":"no change","caspase hit class":"no change","viability robust z-score":0.82,"caspase robust z-score":0.26}
